Source: PubChem BioAssay (NCATS)
The shares of active, inactive and inconclusive entries below differ from those in the screen. For part of these data: Potencies beside an inconclusive call are fits to weak or partial responses and may not hold up. Active and inactive are the calls of the source. Unless noted, the call rests on the fitted dose curve; in most records, active means well fitted curve in the direction sought with a large enough effect; inconclusive means small, poorly fitted or top-dose-only effect, or another doubt; inactive means no such curve, though single readings can be large; an effect the other way counts as inactive or inconclusive.

The chains behind the UniProt entries cited, without tags or fusion partners. Where a name states a change or a piece, a line headed by the entry shows the natural chain unless it says otherwise.
UniProt P05177, whole entry, looked up: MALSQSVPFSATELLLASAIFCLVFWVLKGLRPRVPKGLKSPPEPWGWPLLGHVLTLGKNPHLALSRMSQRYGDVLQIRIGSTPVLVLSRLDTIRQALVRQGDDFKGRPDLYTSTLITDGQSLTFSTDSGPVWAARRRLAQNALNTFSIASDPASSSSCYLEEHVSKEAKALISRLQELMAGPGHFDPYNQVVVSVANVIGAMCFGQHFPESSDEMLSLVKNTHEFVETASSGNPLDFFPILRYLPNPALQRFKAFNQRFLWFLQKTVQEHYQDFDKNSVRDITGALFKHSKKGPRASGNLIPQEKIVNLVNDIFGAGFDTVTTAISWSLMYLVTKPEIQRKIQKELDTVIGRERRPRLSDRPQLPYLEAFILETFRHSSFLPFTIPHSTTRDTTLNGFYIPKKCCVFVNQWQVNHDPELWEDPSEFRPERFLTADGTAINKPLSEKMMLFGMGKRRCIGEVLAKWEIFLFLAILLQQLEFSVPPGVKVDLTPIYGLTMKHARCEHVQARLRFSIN
UniProt P33261, whole entry, looked up: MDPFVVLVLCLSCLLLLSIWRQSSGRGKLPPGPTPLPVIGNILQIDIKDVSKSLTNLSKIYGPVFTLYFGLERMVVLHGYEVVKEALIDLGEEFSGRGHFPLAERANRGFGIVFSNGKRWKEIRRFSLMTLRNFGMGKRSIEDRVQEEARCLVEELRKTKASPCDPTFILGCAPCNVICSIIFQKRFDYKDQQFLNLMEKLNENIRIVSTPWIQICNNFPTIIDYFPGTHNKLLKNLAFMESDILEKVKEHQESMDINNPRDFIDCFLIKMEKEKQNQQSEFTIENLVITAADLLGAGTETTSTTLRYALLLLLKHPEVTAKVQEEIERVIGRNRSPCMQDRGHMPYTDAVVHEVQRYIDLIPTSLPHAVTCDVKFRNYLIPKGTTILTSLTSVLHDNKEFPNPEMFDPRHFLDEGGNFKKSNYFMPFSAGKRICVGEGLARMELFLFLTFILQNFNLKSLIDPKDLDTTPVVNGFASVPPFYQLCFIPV
UniProt P36969, whole entry, looked up: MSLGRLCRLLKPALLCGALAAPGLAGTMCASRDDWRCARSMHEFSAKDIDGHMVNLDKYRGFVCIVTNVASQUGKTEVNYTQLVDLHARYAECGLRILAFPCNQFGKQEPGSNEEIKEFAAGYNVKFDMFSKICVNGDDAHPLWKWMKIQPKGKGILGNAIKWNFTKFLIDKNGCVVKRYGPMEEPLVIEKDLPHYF
UniProt P10635, whole entry, looked up: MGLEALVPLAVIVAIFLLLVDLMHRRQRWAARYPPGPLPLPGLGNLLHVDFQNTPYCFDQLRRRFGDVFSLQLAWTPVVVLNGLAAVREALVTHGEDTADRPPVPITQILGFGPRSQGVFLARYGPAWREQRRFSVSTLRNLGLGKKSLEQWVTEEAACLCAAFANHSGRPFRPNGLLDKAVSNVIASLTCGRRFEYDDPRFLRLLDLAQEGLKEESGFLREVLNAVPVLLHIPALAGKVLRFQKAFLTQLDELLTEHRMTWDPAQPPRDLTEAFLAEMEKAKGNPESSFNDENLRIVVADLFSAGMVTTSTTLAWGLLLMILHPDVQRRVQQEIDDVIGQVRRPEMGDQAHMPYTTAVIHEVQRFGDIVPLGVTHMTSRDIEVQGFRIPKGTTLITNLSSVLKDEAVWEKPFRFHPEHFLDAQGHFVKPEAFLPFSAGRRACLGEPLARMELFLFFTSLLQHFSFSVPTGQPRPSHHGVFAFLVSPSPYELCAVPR
UniProt O75469: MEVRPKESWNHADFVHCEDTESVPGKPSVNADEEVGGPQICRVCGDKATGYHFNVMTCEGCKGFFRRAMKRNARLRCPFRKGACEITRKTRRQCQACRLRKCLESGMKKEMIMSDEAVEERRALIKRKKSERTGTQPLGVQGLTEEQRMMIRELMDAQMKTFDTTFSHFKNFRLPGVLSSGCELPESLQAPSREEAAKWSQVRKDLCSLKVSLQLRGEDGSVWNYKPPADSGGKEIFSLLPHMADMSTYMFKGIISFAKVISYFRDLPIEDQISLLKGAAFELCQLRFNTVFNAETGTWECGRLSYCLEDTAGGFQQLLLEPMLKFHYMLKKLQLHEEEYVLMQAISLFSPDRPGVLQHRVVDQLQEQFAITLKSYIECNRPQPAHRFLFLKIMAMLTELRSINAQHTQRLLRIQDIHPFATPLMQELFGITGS
UniProt P04150: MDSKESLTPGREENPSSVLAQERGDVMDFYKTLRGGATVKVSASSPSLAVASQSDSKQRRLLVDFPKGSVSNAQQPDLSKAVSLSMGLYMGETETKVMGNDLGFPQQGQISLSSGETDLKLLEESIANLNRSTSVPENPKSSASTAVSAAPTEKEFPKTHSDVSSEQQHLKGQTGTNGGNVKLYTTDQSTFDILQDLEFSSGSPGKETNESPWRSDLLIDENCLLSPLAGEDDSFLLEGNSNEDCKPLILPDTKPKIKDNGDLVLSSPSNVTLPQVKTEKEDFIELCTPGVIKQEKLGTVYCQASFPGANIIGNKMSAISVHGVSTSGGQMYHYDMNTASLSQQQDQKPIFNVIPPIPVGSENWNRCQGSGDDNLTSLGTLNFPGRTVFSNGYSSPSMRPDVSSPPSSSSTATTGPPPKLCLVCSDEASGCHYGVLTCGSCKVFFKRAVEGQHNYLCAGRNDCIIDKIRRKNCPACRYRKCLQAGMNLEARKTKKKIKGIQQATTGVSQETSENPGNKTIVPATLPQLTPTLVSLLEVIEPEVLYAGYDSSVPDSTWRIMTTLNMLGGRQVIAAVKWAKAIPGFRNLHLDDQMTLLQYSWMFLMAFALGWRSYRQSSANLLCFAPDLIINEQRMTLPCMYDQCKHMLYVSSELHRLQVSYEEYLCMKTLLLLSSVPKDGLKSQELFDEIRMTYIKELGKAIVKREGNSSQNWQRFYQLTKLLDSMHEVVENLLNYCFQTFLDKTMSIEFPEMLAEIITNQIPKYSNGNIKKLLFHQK
UniProt P08684, whole entry, looked up: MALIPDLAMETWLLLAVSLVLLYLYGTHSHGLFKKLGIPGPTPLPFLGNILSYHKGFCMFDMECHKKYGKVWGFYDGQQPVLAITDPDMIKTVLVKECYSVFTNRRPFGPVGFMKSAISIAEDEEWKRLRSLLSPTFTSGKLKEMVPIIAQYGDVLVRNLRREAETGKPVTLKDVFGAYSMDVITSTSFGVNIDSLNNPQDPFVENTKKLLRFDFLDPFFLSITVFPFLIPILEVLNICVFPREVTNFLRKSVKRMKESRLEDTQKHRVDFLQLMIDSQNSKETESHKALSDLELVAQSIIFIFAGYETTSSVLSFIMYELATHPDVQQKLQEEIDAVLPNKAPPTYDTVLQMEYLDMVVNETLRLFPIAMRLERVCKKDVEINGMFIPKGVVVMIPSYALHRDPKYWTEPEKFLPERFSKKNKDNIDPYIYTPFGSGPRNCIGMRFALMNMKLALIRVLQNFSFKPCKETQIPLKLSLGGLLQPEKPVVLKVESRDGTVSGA
UniProt P54132: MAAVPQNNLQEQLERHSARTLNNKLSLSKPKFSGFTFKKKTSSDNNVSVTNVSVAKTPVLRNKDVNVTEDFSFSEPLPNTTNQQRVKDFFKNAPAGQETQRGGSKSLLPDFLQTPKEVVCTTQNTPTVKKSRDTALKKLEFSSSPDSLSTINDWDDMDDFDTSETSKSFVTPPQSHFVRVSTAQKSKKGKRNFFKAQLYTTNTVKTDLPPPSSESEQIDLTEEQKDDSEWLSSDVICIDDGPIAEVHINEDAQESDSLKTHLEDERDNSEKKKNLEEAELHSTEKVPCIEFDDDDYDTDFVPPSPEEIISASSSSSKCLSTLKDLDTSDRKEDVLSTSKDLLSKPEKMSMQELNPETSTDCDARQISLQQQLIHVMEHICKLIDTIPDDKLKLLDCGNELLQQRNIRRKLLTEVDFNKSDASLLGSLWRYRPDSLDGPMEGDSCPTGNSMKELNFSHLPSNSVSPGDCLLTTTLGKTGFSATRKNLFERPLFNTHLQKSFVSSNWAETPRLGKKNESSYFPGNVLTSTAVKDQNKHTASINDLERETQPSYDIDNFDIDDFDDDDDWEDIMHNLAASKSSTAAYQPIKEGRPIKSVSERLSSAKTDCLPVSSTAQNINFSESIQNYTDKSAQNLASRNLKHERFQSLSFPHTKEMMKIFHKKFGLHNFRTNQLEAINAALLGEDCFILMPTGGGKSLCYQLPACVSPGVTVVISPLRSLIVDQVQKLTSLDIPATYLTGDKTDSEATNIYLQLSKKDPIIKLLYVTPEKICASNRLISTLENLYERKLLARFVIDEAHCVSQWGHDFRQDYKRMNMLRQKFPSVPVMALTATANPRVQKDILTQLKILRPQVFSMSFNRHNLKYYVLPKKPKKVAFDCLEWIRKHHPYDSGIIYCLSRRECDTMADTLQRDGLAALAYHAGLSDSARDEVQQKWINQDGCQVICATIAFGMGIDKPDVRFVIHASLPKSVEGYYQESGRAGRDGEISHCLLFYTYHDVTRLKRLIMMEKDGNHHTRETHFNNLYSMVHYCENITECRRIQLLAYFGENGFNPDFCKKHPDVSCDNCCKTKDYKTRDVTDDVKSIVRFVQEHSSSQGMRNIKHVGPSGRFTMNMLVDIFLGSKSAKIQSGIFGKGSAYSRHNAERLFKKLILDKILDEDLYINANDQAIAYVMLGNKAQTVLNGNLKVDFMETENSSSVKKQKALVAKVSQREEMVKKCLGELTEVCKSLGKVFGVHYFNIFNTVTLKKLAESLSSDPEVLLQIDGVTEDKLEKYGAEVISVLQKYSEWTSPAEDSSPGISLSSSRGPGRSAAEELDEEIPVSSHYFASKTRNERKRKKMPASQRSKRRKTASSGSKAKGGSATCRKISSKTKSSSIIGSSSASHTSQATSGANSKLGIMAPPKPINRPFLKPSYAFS
UniProt Q13526, whole entry, looked up: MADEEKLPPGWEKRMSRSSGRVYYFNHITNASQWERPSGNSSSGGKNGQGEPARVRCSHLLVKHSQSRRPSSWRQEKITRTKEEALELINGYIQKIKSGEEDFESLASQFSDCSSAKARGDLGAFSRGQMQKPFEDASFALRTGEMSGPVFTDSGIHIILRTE
UniProt P35557, whole entry, looked up: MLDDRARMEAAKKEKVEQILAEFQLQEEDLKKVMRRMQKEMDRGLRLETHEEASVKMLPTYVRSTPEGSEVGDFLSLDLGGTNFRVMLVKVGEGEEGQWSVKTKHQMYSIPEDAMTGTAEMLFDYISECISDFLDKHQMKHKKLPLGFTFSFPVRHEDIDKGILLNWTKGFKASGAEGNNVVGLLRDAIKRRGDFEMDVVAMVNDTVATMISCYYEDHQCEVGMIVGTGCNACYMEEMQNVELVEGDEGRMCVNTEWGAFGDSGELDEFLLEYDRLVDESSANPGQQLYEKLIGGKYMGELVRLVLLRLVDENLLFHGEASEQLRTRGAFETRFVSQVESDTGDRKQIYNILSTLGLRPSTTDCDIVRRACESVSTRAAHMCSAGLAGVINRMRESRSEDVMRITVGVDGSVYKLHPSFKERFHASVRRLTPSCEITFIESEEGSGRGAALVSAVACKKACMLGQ
UniProt Q14397: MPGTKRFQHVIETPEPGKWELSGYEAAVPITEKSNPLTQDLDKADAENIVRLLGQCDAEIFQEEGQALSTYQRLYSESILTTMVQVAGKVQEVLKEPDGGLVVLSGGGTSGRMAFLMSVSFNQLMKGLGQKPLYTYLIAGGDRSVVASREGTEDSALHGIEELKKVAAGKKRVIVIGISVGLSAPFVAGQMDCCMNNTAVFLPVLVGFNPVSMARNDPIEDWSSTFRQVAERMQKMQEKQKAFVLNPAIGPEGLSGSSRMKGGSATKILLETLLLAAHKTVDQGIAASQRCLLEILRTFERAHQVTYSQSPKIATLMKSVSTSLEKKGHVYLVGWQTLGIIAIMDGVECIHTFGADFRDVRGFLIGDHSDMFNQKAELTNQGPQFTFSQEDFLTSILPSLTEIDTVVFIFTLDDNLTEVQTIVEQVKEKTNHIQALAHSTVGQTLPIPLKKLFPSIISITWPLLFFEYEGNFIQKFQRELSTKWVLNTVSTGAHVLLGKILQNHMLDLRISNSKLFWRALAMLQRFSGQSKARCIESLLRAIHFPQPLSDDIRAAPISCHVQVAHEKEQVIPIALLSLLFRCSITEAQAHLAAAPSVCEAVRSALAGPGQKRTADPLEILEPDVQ
UniProt C7C422: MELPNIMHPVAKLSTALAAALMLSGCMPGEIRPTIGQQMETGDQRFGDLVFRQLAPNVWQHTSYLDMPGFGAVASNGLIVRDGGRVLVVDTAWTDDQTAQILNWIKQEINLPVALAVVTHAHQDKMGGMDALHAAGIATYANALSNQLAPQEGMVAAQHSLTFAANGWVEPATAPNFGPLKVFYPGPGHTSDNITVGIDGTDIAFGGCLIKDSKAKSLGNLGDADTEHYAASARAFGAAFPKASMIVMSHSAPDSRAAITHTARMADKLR

Columns and labels:
[1] = HepG2 viability counterscreen (readout 1: protease activity) against the NCATS DSHEA and TCM libraries (AID 1794841); details: qHTS concentration series; series mostly up to 27.3 µM
Procedure, shortened: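 1,000 HepG2 cells/well, 4 h attach; compounds ~24 h, 37C/5% CO2. Readout 1: GF-AFC 25 uM final, 30 min, fluorescence 380/510 nm. Readout 2: CellTiter-Glo, 30 min RT, luminescence.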

[2] = target: Cytochrome P450 2C9 (Homo sapiens) (UniProt P11712); test: qHTS for inhibitors of CYP2C9 against the NCATS DSHEA and TCM libraries (AID 1919973); details: recombinant CYP2C9 enzyme activity, luminescence; series mostly up to 34.1 µM; further: potency means the concentration at half of the fitted maximal effect;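 on activity change, negative = inhibition: luminogenic pro-luciferin CYP2C9 substrate turned into luciferin with NADPH regeneration; on the % scale 0 is the no-effect control and ±100 the full control effect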
Procedure, shortened: (§1)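 Read-out is luminescence after P450-Glo detection (30 min, RT). Before that: 15 min compound–enzyme preincubation, then 30-45 min reaction with 1x NADPH regeneration solution, substrate concentration isoform-specific.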

[3] = target: Cytochrome P450 1A2 (Homo sapiens) (UniProt P05177); test: qHTS for inhibitors of CYPIA2 against the NCATS DSHEA and TCM libraries (AID 1919976); details: recombinant CYP1A2 enzyme activity, luminescence; series mostly up to 37 µM; further: potency means the concentration at half of the fitted maximal effect;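 on activity change, negative = inhibition: light from luciferin formed by CYP1A2 from a pro-luciferin substrate; on the % scale 0 is the no-effect control and ±100 the full control effect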
Procedure, shortened: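 CYP1A2 + luciferin substrate, 100 mM KPO4-type buffer; cmpd 15 min RT; 1x NADPH regen, 30-45 min RT dark; detection reagent 30 min RT; luminescence. Minus-enzyme wells as background; furafylline intraplate control.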

[4] = target: Nuclear receptor subfamily 1 group I member 3 (Homo sapiens) (UniProt Q14994); test: Primary qHTS for agonist of constitutive androstane receptor (CAR) against the NCATS DSHEA and TCM libraries (AID 1794839); details: CAR agonist reporter cells, qHTS luminescence, CAR antagonist co-added at 0.75 µM; series mostly up to 40 µM; further: potency means the concentration at half of the fitted maximal effect;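 on activation: HepG2 cells expressing human CAR with a CYP2B6 reporter plus PK11195 antagonist; 0% is about no effect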
Procedure, shortened: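 Luminescence from ONE-Glo luciferase was the agonist read-out in HepG2-CYP2B6-hCAR cells exposed 24 h to test substances. Wells also held the CAR antagonist PK11195 at 0.75 µM final. Viability was by CellTiter-Fluor fluorescence.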

[5] = target: Cytochrome P450 2C19 (Homo sapiens) (UniProt P33261); test: qHTS for inhibitors of CYP2C19 against the NCATS DSHEA and TCM libraries (AID 1919974); details: CYP2C19 enzyme inhibition, luminescence qHTS; series mostly up to 34.1 µM;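 further: luminescence from luciferin released by CYP2C19 oxidation of a pro-luciferin substrate; potency means the concentration at half of the fitted maximal effect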
Procedure, shortened: as §1

[6] = target: Phospholipid hydroperoxide glutathione peroxidase GPX4 (Homo sapiens) (UniProt P36969); test: Primary qHTS Assay for Inhibitors of Recombinant Selenoprotein Glutathione Peroxidase 4 (GPX4) (AID 1845192); details: recombinant GPX4, GR-coupled NADPH fluorescence, 15 min; series mostly up to 50 µM; further: potency means the concentration at half of the fitted maximal effect; nearly all actives have a fitted effect of over 65% in size
Procedure, shortened: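 GR-coupled assay: recombinant GPX4 preincubated 30 min with compound at room temperature; final 200 nM GPX4, 1 mM GSH, 0.5 mM cumene hydroperoxide, 0.5 mM NADPH, 100 nM GR, 0.01% BSA, pH 7.5 Tris. NADPH fluorescence (340/450 nm) read at 0 and 15 min.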

[7] = target: Cytochrome P450 2D6 (Homo sapiens) (UniProt P10635); test: qHTS for inhibitors of CYP2D6 against the NCATS DSHEA and TCM libraries (AID 1919972); details: CYP2D6 enzymatic inhibition, luminescence qHTS; series mostly up to 58.3 µM; further: on the % scale 0 is the no-effect control and ±100 the full control effect
Procedure, shortened: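 Luminescent P450-Glo read-out of CYP2D6 turnover of a luciferin substrate after NADPH-driven reaction of 30-45 min at room temperature. Compounds were first preincubated 15 min with enzyme at titrated concentrations; quinidine was the intraplate control.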

[8] = target: Nuclear receptor subfamily 1 group I member 2 (Homo sapiens) (UniProt O75469); test: Dual reporter qHTS for agonist of Pregnane X Receptor (hPXR) against the NCATS DSHEA and TCM libraries: Luminescence readout (AID 1920059); details: hPXR dual reporter cells, luciferase luminescence agonist; series mostly up to 40 µM; further: 0% is about no effect
Procedure, shortened: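 hPXR-Luc HepG2 cells, 2000/well in 5% charcoal-stripped FBS medium, attached 5 h, then exposed 24 h at 37C to compounds. Viability by CellTiter-Fluor, then luciferase luminescence with ONE-Glo.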

[9] = target: Glucocorticoid receptor (Homo sapiens) (UniProt P04150); test: GR-GFP Redistribution (AID 450;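 active means compounds whose dose series gives a full or clear partial fitted curve of increased nuclear translocation; inconclusive means weak partial curve or effect only at the top dose; inactive means no dose-dependent translocation response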; further: potency means the concentration at half of the fitted maximal effect); details: U2OS GR-GFP nuclear translocation, laser cytometry, 2 h
[10] = target: Cytochrome P450 2C9 (Homo sapiens) (UniProt P11712); test: qHTS Assay for Inhibitors and Substrates of Cytochrome P450 2C9 (AID 883); details: recombinant CYP2C9, luciferin-H luminescence, 60 min; activity change, negative = inhibition: at 57.1 µM (top of the series); further: potency means the concentration at half of the fitted maximal effect; nearly all actives have a fitted effect of over 60% in size
Procedure, shortened: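 Signal: luciferase luminescence reporting luciferin produced by CYP2C9. Conditions: 10nM enzyme, Luciferin-H 100uM at KM, 25mM KPO4, 37C, 60 min NADPH-driven reaction. Reference: 57uM sulphaphenazole as 100% inhibition.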

[11] = target: Cytochrome P450 3A4 (Homo sapiens) (UniProt P08684); test: qHTS Assay for Activators of Cytochrome P450 3A4 (AID 885); details: recombinant CYP3A4, Luciferin-PPXE luminescence, 60 min; series mostly up to 57.1 µM; further: nearly all actives have a fitted effect of over 65% in size
Procedure, shortened: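 Quantitative HTS format: compounds preincubated with 20nM human CYP3A4 and Luciferin-PPXE substrate at KM, reaction started by NADPH regeneration, stopped after 60 min, luciferase luminescence read 20 min later.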

[12] = target: Cytochrome P450 2D6 (Homo sapiens) (UniProt P10635); test: qHTS Assay for Inhibitors and Substrates of Cytochrome P450 2D6 (AID 891); details: recombinant CYP2D6, luciferin-ME EGE luminescence; activity change, negative = inhibition: at 57.1 µM (top of the series); further: potency means the concentration at half of the fitted maximal effect; nearly all actives have a fitted effect of over 60% in size
Procedure, shortened: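 Human CYP2D6 (5 nM) with 30 uM Luciferin-ME EGE (at Km) in 100 mM KPO4, compound preincubated 10 min, then NADPH regeneration system for 60 min at room temperature. Luciferin read by luminescence; normalized to 1.43 uM quinidine.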

[13] = target: RecQ-like DNA helicase BLM (Homo sapiens) (UniProt P54132); test: qHTS Validation Assay for Inhibitors of Bloom's syndrome helicase (BLM) (AID 2364); details: BLM helicase DNA unwinding, fluorescence, in vitro; series mostly up to 57.1 µM;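 further: plate controls were DMSO vehicle for no effect and enzyme-free control for full effect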
Procedure, shortened: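 50 nM BLM preincubated 15 min at room temperature with compound in pH 8.0 Tris buffer containing 2.5 ug/ml poly(dI-dC); started with 200 nM TAMRA/BHQ-2 forked duplex and 2 mM ATP (final). Unwinding read as TAMRA fluorescence increase, two reads 2 h apart.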

[14] = High Content Imaging Cell-Based qHTS for Inhibitors of the mTORC1 Signaling Pathway in MEF Cells (AID 2667); details: at 38.3 µM (top of the series);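 further: Tsc2-/- p53-/- MEFs stably re-expressing wild-type Tsc2 exposed 24 h; plate controls were DMSO wells for no effect and rapamycin control wells for full effect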
Procedure, shortened: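 WT MEFs (Tsc2-/-, p53-/- re-expressing Tsc2), in DMEM + 10% FBS, were treated with compound for 24 h at 37 C. Cells were then fixed and stained for phospho-rpS6 Ser235/236 with propidium iodide as cell count. Values are % positive cells, with thresholds set against rapamycin-treated cells.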

[15] = Quantitative high throughput screen for delayed death inhibitors of the malarial parasite plastid, 96 hour incubation (AID 488745); details: Plasmodium falciparum growth; series mostly up to 28.7 µM;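 further: luciferase-expressing P. falciparum in erythrocytes at 2% hematocrit and 0.1% parasitemia; on the % scale 0 is the no-effect control and ±100 the full control effect; nearly all actives have a fitted effect of over 70% in size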
Procedure, shortened: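 Infected erythrocytes were added to compound in Albumax-supplemented RPMI 1640 at 0.1% parasitemia and 2% hematocrit (final), incubated 96 h at 37 C under 5% CO2, then luciferase reagent was added and luminescence measured.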

[16] = target: ATPase family AAA domain-containing protein 5 (Homo sapiens) (UniProt Q96QE3); test: Validation screen for small molecules that inhibit ELG1-dependent DNA repair in human embryonic kidney (HEK293T) cells expressing luciferase-tagged ELG1 (AID 493107); details: HEK293T ELG1-luciferase level, luminescence, 5-fluorouridine co-treatment, 16 h; series mostly up to 46.1 µM;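 further: cells co-treated with the DNA-damaging agent 5-fluorouridine alongside compound; on the % scale 0 is the no-effect control and ±100 the full control effect; inhibitors lower the ELG1-luciferase luminescence signal; nearly all actives have a fitted effect of over 70% in size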
Procedure, shortened: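 Luminescence from ONE-Glo, developed 30 min at room temperature, served as read-out of ELG1-luciferase levels. Beforehand, reporter HEK293T cells received 5-fluorouridine plus test compound for 16 hr at 37 °C.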

[17] = target: Peptidyl-prolyl cis-trans isomerase NIMA-interacting 1 (Homo sapiens) (UniProt Q13526); test: qHTS Validation Assay to Find Inhibitors of Pin1 (AID 504536; active means well fitted inhibition curve with a large enough effect in the polarisation, with a control signal flat, not every such curve was filed as active; inconclusive means small, poorly fitted or top-dose-only effect, or effect the other way; the % refers to the polarisation;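 further: 0% = full Pin1 enzyme wells and -100% = no-enzyme wells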); details: Pin1 fluorescence polarization peptide binding assay; series mostly up to 57.5 µM
Procedure, shortened: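 Fluorescence polarization competition: compounds (titration) displace HiFluor-488-labeled Pin1-1b peptide from Pin1 (0.3 uM final) in pH 7.5 HEPES buffer with DTT, 10 min at room temperature; %Activity normalized to no-enzyme wells, curves fitted.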

[18] = S16 Schwann cell PMP22 intronic element beta-lactamase assay (AID 624044; calls by dose curve;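 further: 0% = DMSO and -100% = potassium clavulanate positive control; nearly all actives have a fitted effect of over 15% in size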); details: S16 rat Schwann cells, PMP22 element beta-lactamase FRET, 24 h; ratio activity, negative = inhibition: at 38.3 µM (top of the series) unless noted
Procedure, shortened: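 Rat S16 Schwann cells with beta-Lac driven by a PMP22 intronic element, compound-treated 24 h at 37 °C. LiveBLAzer FRET B/G read: 460 nm normalized to potassium clavulanate vs DMSO; 535 nm FRET as viability; concentration-effect curves classified.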

[19] = target: Hexokinase-4 (Homo sapiens) + Glucokinase regulatory protein (Homo sapiens) (UniProt P35557+Q14397); test: qHTS assay for inhibitors of recombinant human GCK-GKRP interaction: Diaphorase-coupled assay (AID 743205); details: G6PDH/diaphorase resorufin fluorescence; at 57.5 µM (top of the series)
Procedure, shortened: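 Resorufin fluorescence (525/590 nm), read each minute over 30 min, reports GCK activity coupled via G6PDH and diaphorase. Reaction: 10 nM GST-GCK, 10 nM FLAG-GKRP, 5 mM glucose, 0.4 mM ATP, 0.15 mM NADP+, 0.1 mM resazurin.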

[20] = target: Metallo-beta-lactamase type 2 (Klebsiella pneumoniae) (UniProt C7C422); test: qHTS to identify inhibitors of the New Delhi Metallo-beta-lactamase (NDM): assay validation screen against the NCATS LOPAC Collection (AID 1794843); details: NDM-1 enzyme, nitrocefin hydrolysis, absorbance 485 nm; series mostly up to 38.4 µM; further: potency means the concentration at half of the fitted maximal effect
Procedure, shortened: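 Nitrocefin hydrolysis (50 uM substrate stock) by NDM-1, 2 nM final, was followed by 485 nm absorbance after compound preincubation; buffer was 50 mM HEPES pH 7.0, 1 uM ZnSO4, 0.01% Tween20.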

ICS = test: qHTS profiling for inhibitors of Plasmodium falciparum proliferation (AID 504749);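 further: 0% = DMSO vehicle and full inhibition = artemisinin control; nearly all actives have a fitted effect of over 60% in size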; details: P. falciparum in erythrocytes, SYBR Green DNA, 72 h; series mostly up to 28.7 µM
Procedure, shortened: (§2)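 P. falciparum-infected erythrocytes (0.3% parasitemia, 2.5% hematocrit) incubated with compound 72 h at 37 C, 5% CO2. Parasite DNA detected by SYBR Green after lysis, overnight at room temperature; normalised to 0.29 uM artemisinin and DMSO.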

W2 = test: as above; details: P. falciparum in erythrocytes, SYBR Green DNA, 72 h; series mostly up to 28.7 µM
Procedure, shortened: as §2

[21] = Counterscreen for APE1 Inhibitors: Fluorescent Dye Displacement Assay (AID 2564); details: DNA fluorescent dye displacement counterscreen, fluorescence; series mostly up to 28.5 µM;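 further: loss of thiazole orange fluorescence as the dye is displaced from duplex DNA; potency means the concentration at half of the fitted maximal effect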
Procedure, shortened: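 ThO 250 nM + dsDNA 50 nM (THF abasic site, 5'-TAMRA), Tris-HCl pH7.5/50mM NaCl/2 mM MgCl2/0.01% Tween-20; compounds pin-transferred; ex 480/em 540 nm endpoint. Neutral = no compound; no-DNA ThO wells = negative control.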

## CCCCCCCC/C=C/CCCCCCCCCC(=O)O
[1]
  Potency: inconclusive: 25.1 µM [inhibitor, single point]
[2]
  Potency: inconclusive: 31.6 µM [inhibitor, single point]
[3]
  Potency: inactive

## CC1(C)CC[C@]2(C(=O)O)CC[C@]3(C)C(=CCC4[C@@]5(C)CC[C@H](O)[C@@](C)(CO)C5CC[C@]43C)[C@H]2C1 (stereo not given in full)
[4]
  Potency: inactive
[2]
  Potency: inactive
[5]
  Potency: inconclusive: 22.4 µM [inhibitor, partial curve, poor fit]

## CC(C)=CCC[C@](C)(O[C@@H]1O[C@H](CO)[C@@H](O)[C@H](O)[C@H]1O)[C@H]1CC[C@]2(C)[C@@H]1[C@H](O)C[C@@H]1[C@@]3(C)CC[C@H](O)C(C)(C)[C@@H]3[C@@H](O[C@@H]3O[C@H](CO)[C@@H](O)[C@H](O)[C@H]3O)C[C@]12C
[4]
  Potency: inconclusive: 1.12 µM [activator, full curve, poor fit]
[1]
  Potency: inconclusive: 25.1 µM [inhibitor, single point]
[3]
  Potency: inactive

## CCCCCCCC/C=C/CCCCCCCC(=O)O
[1]
  Potency: inconclusive: 10 µM [inhibitor, partial curve, poor fit]
[6]
  Potency: active: 11.2 µM
[7]
  Potency: inactive
[3]
  Potency: inconclusive: 3.98 µM [inhibitor, full curve]
[8]
  Potency: inactive

## COc1cccc(-c2nccc(NCCc3c[nH]c4ccc(OC)cc34)n2)c1
[9]
  Potency: inconclusive: 43.6 µM [single point]

## COc1ccc(CNc2ncnc3ccc(-c4cccc(NS(C)(=O)=O)c4)cc23)c(OC)c1
[10]
  Potency: active: 0.501 µM

## c1csc(CNc2ncncc2-c2ccoc2)c1
[10]
  Potency: inconclusive: 0.794 µM [inhibitor, partial curve]

## Cc1noc(C)c1-c1ccc2ncnc(NCc3cccnc3)c2c1
[11]
  Potency: inactive

## CN(C)c1ncc2nc(-c3cccc(C#N)c3)c(=O)n(C[C@H]3CCCO3)c2n1
[12]
  Potency: inconclusive: 2.51 µM [inhibitor, full curve]

## CC(C)COC(=O)OCN1C(=O)CN(CCN2CC(=O)N(COC(=O)OCC(C)C)C(=O)C2)CC1=O
[13]
  Potency: inactive
[14]
  activity change, negative = inhibition: inactive: -100%
[15]
  Potency: inactive
[16]
  Potency: inactive
[17]
  Potency: inactive
[18]
  ratio activity, negative = inhibition: inconclusive: -27.4%
[19]
  activity change, positive = activation: inactive: -2.27%
[20]
  Potency: inconclusive: 14.1 µM [inhibitor, partial curve]
ICS
  Potency: inactive
W2
  Potency: inactive

## Cc1noc(C)c1-c1ccc2ncnc(NCc3cccs3)c2c1
[21]
  Potency: inconclusive: 11.2 µM [inhibitor, full curve]
